Laboratory results published in US20200216432A1, “SULFONAMIDE DERIVATIVES AS STAT3 INHIBITORS FOR THE TREATMENT OF PROLIFERATIVE DISEASES” (King's College London, priority 2017, published 2020).

Test system: MDA-MB-231 breast (STAT3-dependent) cancer cell line
Test: MTT cell viability assay, MDA-MB-231
Format: cell-based, human
Conditions: STAT3-null A4 versus STAT3-dependent MDA-MB-231
From the text: MTT Cell viability assay with both MDA-MB-231 breast (STAT3-dependent) and A4 (STAT3-null) cancer cell lines.
After observing significant STAT3 dimerisation inhibitory activity in the preliminary FP assay, the target ligand and related fragments were progressed to an MTT cytotoxicity assay to evaluate in a STAT3-dependent tumour cell line (MDA MB 231, breast cancer) and a STAT3 null A4 cell line. It was anticipated that the compounds would show selective toxicity towards the STAT3-dependent MDA MB 231 cell line and would have lost activity in the STAT3 null A4 cell line if the mechanism of action was STAT3-mediated.
For each cell line, a total of 10,000 cells were seeded for 24 hours before addition of the inhibitors. The cells were grown in normal cell culture conditions at 37° C. under a 5% CO2 humidified atmosphere using an appropriate medium. The cell count was adjusted to 10^5 cells/ml, and 5,000-20,000 cells were added per well depending on the cell line. The cells were then incubated for 24 hours, and 1 μl aliquots of the inhibitors were added to the wells in triplicate. […] Absorbance was quantified by spectrophotometry at A=570 nm (Envision™ Plate Reader, PerkinElmer™, USA). IC50 values were calculated by a dose-response analysis using the Prism GraphPad Prism® software package.

| Structure (SMILES) | Selectivity ratio |
| --- | --- |
| COC(=O)c1ccc(N(C)S(=O)(=O)c2cc(C(=O)NCc3ccc(OCCN4CCOCC4)cc3)sc2Br)cc1 [Compound 25, methyl 4-((2-bromo-N-methyl-5-((4-(2-morpholinoethoxy)benzyl)carbamoyl)thiophene)-3-sulfonamido)benzoate] | 12.11 |
| COC(=O)c1ccc(N(C)S(=O)(=O)c2cc(C(=O)Nc3ccc(OCCN4CCOCC4)cc3)sc2Br)cc1 [Compound 29, methyl 4-((2-bromo-N-methyl-5-((4-(2-morpholinoethoxy)phenyl)carbamoyl)thiophene)-3-sulfonamido)benzoate] | 9.24 |
| COC(=O)c1ccc(N(C)S(=O)(=O)c2cc(C(=O)Nc3ccc(N4CCN(C(=O)c5cc6ccccc6o5)CC4)cc3)sc2Br)cc1 [Compound 39, methyl 4-((5-((4-(4-(benzofuran-2-carbonyl)piperazin-1-yl)phenyl)carbamoyl)-2-bromo-N-methylthiophene)-3-sulfonamido)benzoate] | 9 |
